Assay results from US20240400531A1, “HERBICIDAL MALONAMIDES CONTAINING A CONDENSED RING SYSTEM” (BASF SE, priority 2021, published 2024).
Some of these results come from one statement about several compounds together.

Experiments:
ALOMY = assay: greenhouse post-emergence herbicidal test; type: in vivo, Alopercurus myosuroides; conditions: post-emergence method, application rate 0.250 kg/ha, scale from 0 to 100
ECHCG = assay: greenhouse pre-emergence herbicidal test; type: in vivo, Echinocloa crus-galli; conditions: pre-emergence method, application rate 0.250 kg/ha, scale from 0 to 100
SETFA = assay: greenhouse pre-emergence herbicidal test; type: in vivo, Setaria faberi; conditions: pre-emergence method, application rate 0.250 kg/ha, scale from 0 to 100
SETVI = assay: greenhouse post-emergence herbicidal test; type: in vivo, Setaria viridis; conditions: post-emergence method, application rate 0.250 kg/ha, scale from 0 to 100
APESV = assay: greenhouse pre-emergence herbicidal test; type: in vivo, Apera spica-venti; conditions: pre-emergence method, application rate 0.250 kg/ha, scale from 0 to 100
Excerpt: The culture containers used were plastic flowerpots containing loamy sand with approximately 3.0% of humus as the substrate. The seeds of the test plants were sown separately for each species.
For the pre-emergence treatment, the active ingredients, which had been suspended or emulsified in water, were applied directly after sowing by means of finely distributing nozzles. The containers were irrigated gently to promote germination and growth and subsequently covered with transparent plastic hoods until the test plants had rooted. This cover caused uniform germination of the test plants, unless this had been impaired by the active ingredients.
Depending on the species, the test plants were kept at 10-25° C. or 20-35° C., respectively.
The test period extended over 2 to 4 weeks. During this time, the test plants were tended, and their response to the individual treatments was evaluated.
Evaluation was carried out using a scale from 0 to 100. 100 means no emergence of the test plants, or complete destruction of at least the aerial moieties, and 0 means no damage, or normal course of growth. A good herbicidal activity is given at values of 65 to <90 and a very good herbicidal activity is given at values of 90 to 100.

AVEFA = assay: greenhouse post-emergence herbicidal test; type: in vivo, Avena fatua; conditions: post-emergence method, application rate 0.250 kg/ha, scale from 0 to 100
ABUTH [1] = assay: greenhouse post-emergence herbicidal test; type: in vivo, Abutilon theophrasti; conditions: post-emergence method, application rate 0.250 kg/ha, scale from 0 to 100
ABUTH [2] = assay: greenhouse pre-emergence herbicidal test; type: in vivo, Abutilon theophrasti; conditions: pre-emergence method, application rate 0.250 kg/ha, scale from 0 to 100

Row | Compound | herbicidal activity against ALOMY (ALOMY) | herbicidal activity against ECHCG (ECHCG) | herbicidal activity against SETFA (SETFA) | herbicidal activity against SETVI (SETVI) | herbicidal activity against APESV (APESV) | herbicidal activity against AVEFA (AVEFA) | herbicidal activity against ABUTH (ABUTH [1]) | herbicidal activity against ABUTH (ABUTH [2])
1 | COC(C(=O)Nc1cccc2occc12)C(=O)N[C@H]1C=C[C@@H](C(=O)OC(C)C)C1 (stereo partly drawn) [I.6, isopropyl (1S,4R)-4-[[3-(benzofuran-4-ylamino)-2-methoxy-3-oxo-propanoyl]amino]cyclopent-2-ene-1-carboxylate] | good (A good herbicidal activity is given at values of 65 to <90) | good (A good herbicidal activity is given at values of 65 to <90) | good (A good herbicidal activity is given at values of 65 to <90) | very good (a very good herbicidal activity is given at values of 90 to 100) |  |  |  | 
2 | COC(C(=O)Nc1cccc2c1OC(F)(F)O2)C(=O)N[C@H]1C=C[C@@H](C(=O)OC(C)C)C1 (stereo partly drawn) [I.8, isopropyl (1S,4R)-4-[[3-[(2,2-difluoro-1,3-benzodioxol-4-yl)amino]-2-methoxy-3-oxo-propanoyl]amino]cyclopent-2-ene-1-carboxylate] |  |  | good (A good herbicidal activity is given at values of 65 to <90) | very good (a very good herbicidal activity is given at values of 90 to 100) | good (A good herbicidal activity is given at values of 65 to <90) | good (A good herbicidal activity is given at values of 65 to <90) | good (A good herbicidal activity is given at values of 65 to <90) | 
3 | COC(C(=O)Nc1cccc2c1ccn2C)C(=O)N[C@H]1C=C[C@@H](C(=O)OC(C)C)C1 (stereo partly drawn) [I.10, isopropyl (1S,4R)-4-[[2-methoxy-3-[(1-methylindol-4-yl)amino]-3-oxo-propanoyl]amino]cyclopent-2-ene-1-carboxylate] |  |  |  |  |  |  |  | good (A good herbicidal activity is given at values of 65 to <90)
4 | COC(C(=O)Nc1cccc2ocnc12)C(=O)N[C@H]1C=C[C@@H](C(=O)OC(C)C)C1 (stereo partly drawn) [I.11, isopropyl (1S,4R)-4-[[3-(1,3-benzoxazol-4-ylamino)-2-methoxy-3-oxo-propanoyl]amino]cyclopent-2-ene-1-carboxylate] |  |  |  |  |  |  | very good (a very good herbicidal activity is given at values of 90 to 100) | good (A good herbicidal activity is given at values of 65 to <90)
